The target of this experiment is T1, Flag-FATS (fragile site-associated tumor suppressor) (UniProt Q96M02).
T1 sequence: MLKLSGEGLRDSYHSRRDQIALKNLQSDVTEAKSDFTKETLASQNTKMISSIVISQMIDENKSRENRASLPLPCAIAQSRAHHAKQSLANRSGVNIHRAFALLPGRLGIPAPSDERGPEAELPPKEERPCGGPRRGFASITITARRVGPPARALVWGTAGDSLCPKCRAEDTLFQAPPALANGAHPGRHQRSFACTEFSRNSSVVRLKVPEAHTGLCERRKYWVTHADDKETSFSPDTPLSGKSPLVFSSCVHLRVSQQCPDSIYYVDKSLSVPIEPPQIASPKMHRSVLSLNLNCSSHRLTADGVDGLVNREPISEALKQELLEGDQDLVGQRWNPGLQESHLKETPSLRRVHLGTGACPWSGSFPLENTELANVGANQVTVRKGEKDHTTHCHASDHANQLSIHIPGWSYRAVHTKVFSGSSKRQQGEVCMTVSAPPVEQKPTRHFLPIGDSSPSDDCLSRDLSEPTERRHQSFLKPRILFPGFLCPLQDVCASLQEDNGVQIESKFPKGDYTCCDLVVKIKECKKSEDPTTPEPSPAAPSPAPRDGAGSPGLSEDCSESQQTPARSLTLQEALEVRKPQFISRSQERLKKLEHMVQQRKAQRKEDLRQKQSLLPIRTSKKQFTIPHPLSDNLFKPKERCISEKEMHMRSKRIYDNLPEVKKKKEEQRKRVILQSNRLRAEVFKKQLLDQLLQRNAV
As to the kind of experiment: affinity purification with mass spectrometry; MCF-7 cells transfected with Flag-FATS or an empty plasmid; co-immunoprecipitation, silver staining, mass spectrometry of the co-immunoprecipitated proteins.

Protein sequences, listed by entry. Tags and fused reporters are not part of them.
UniProt P35579: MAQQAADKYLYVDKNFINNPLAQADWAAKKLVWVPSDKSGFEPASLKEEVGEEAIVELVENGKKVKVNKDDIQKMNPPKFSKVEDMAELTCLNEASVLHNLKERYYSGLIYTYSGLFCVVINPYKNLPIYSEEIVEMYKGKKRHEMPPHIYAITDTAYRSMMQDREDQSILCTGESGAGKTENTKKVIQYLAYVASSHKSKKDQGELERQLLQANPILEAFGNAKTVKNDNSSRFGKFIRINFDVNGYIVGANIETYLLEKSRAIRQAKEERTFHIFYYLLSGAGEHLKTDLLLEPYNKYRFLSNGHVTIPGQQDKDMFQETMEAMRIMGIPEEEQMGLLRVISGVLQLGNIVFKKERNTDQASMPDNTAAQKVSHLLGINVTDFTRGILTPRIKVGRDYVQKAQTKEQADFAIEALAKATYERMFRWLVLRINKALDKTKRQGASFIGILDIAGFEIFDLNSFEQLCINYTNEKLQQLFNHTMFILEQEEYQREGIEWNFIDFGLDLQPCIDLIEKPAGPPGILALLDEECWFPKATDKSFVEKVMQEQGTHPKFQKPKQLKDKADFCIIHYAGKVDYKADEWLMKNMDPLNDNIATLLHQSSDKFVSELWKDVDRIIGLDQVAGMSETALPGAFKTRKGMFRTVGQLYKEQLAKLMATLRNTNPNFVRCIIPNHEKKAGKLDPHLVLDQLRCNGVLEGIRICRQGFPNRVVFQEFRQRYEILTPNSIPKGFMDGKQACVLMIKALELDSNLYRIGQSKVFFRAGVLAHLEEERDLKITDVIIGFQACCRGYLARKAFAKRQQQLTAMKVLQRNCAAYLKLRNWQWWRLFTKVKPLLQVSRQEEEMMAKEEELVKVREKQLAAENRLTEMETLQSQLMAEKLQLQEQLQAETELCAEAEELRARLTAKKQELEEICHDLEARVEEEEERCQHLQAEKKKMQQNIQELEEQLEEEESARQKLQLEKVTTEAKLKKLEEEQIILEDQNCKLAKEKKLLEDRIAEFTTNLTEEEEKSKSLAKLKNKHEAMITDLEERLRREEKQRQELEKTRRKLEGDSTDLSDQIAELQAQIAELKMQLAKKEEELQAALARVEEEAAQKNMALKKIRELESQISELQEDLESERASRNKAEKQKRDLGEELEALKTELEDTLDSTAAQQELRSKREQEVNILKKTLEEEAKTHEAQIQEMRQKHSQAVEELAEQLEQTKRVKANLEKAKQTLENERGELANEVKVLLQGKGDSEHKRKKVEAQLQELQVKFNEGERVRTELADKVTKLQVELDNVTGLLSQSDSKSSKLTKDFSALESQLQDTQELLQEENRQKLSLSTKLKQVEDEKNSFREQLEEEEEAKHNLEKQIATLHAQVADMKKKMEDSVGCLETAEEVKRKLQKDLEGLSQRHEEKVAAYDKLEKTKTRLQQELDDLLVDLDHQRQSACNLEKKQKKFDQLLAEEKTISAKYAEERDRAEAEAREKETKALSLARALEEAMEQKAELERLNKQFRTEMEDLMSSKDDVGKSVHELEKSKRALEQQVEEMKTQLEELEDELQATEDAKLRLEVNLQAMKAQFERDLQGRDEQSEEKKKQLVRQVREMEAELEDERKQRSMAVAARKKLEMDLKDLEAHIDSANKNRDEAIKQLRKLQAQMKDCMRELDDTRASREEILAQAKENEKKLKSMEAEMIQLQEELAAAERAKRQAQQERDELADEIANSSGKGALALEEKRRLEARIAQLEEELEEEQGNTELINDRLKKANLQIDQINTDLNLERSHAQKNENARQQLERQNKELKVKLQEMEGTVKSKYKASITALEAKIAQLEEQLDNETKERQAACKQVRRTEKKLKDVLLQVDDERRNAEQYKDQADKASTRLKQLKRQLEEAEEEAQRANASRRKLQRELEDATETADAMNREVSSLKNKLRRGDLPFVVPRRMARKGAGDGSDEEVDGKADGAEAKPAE

No constants are given. Whether binding was seen depends on the method and setting. Binding seen in cells or lysates may run through a third protein. Here binding means that the protein was enriched with, or labelled near, the bait; the list need not be complete. Sequences can lack the tags named with a protein.

In the case of “myosin heavy chain 9 (MYH9) (from UniProt P35579 1-1960)”, the binding entry is given as “binds”.

Values taken from paper PMC11569202.
